Laboratory results reported in doi:10.1101/719559.
Results are given in words; binding and its absence hold for the method and conditions named. Binding seen in cells or lysates may run through a third protein.

Amino acid sequences for entries named in this document (tags omitted). A change or cut given only in a name is not applied to a line headed by its entry.
UniProt Q9NRC8: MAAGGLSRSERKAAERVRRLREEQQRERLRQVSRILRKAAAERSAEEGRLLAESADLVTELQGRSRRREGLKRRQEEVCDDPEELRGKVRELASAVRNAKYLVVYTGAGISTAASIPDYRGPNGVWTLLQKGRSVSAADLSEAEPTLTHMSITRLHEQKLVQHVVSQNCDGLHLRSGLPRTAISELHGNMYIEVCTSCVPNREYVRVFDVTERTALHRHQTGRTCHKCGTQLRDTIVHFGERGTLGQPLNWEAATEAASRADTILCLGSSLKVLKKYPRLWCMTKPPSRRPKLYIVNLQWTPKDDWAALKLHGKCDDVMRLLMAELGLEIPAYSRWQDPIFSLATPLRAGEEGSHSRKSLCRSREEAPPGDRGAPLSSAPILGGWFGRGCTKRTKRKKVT

Target: SirT7 N189A expressed in HEK293F cells (UniProt Q9NRC8)
Experiment: co-IP

binding: no binding
Substance: endogenous mH2A1.1 (HEK293F cells) (from UniProt O75367-2 1-369)
